{"sequences": {"note": "Amino acid sequences for entries named in this document (tags omitted).", "UniProt Q0JBA9, entry or part of it": "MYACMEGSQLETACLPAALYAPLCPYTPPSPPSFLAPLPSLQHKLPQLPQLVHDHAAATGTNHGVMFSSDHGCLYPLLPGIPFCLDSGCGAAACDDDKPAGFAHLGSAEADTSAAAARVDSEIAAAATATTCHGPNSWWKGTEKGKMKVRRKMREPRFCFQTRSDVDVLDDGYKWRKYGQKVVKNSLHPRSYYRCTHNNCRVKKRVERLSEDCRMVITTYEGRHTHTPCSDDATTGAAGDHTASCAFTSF"}, "source": "paper PMC7819943", "about": "“Rice protein-binding microarrays: a tool to detect cis-acting elements near promoter regions in rice”", "note": "Some of the results follow."}
{"target": "OsWRKY34 (Oryza sativa, UniProt Q0JBA9 1-250)", "experiment": "protein-binding microarray (RPBM); PBS, 2% BSA, 51.3 ng/ul salmon testes DNA, 50 uM zinc acetate, 200 nM TF, 25 C, 1 h; high values mean tight binding", "settings": "protein: recombinant; tags: N-terminal polyhistidine and DsRed monomer fusion (pET32a); label: CyDye5-dUTP incorporated in the synthesized complementary strand; 3' TTTTT single-stranded linker to array surface; dsDNA, one strand shown", "outline": "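Binding signal is defined as the fluorescence intensity of each feature in arbitrary units, read on an Axon 4000B scanner. Transcription factors with N-terminal polyhistidine and DsRed fusions came from E. coli BL21-CodonPlus and were purified on Ni–NTA. They were incubated at 200 nM for 1 h at 25 °C on a custom Agilent array that had been made double-stranded with Cy5-dUTP, with 50 µM zinc acetate present, and the array was washed.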"}
{"sequence": "GGTCCGGCATCGCCCTCCGCACTATTTTACGTCCCCACATCGGAGTCACCTAGTGCAG", "binding signal": "11700 fluorescence intensity (a.u.)"}
{"sequence": "TTTTTAGCGCATGTTTGACCGTTCGTCTTATTCAAAAACTCGGAGTCACCTAGTGCAG", "binding signal": "10800 fluorescence intensity (a.u.)"}
{"sequence": "GCACCCTGTCACTCCACCTCGAGGCTACCTAGACGTTATTCGGAGTCACCTAGTGCAG", "binding signal": "9550 fluorescence intensity (a.u.)"}
{"sequence": "ACGCGGTGGCTGTTGTCTGTCGCGGTTGTTTCTTGTCTGTCGGAGTCACCTAGTGCAG", "binding signal": "9170 fluorescence intensity (a.u.)"}
{"sequence": "TATCTCCTATGGTAAGTTCGCTACTCTCAACCTATAAATACGGAGTCACCTAGTGCAG", "binding signal": "8150 fluorescence intensity (a.u.)"}
{"sequence": "GCACAATCGCTCCTTCTACACACCTACCCCATTTTCTTCTCGGAGTCACCTAGTGCAG", "binding signal": "10100 fluorescence intensity (a.u.)"}
{"sequence": "ACATAACACCACTTGATACTATTTCTCTTAATTAATTACTCGGAGTCACCTAGTGCAG", "binding signal": "9670 fluorescence intensity (a.u.)"}
{"sequence": "TCCGTTGACCCCATAGTTTCTTACCATCATCGTTTAGAGTCGGAGTCACCTAGTGCAG", "binding signal": "12700 fluorescence intensity (a.u.)"}
{"sequence": "ATATGTCTATGATTCGTTACCATATACTCTATCCGTTTCTCGGAGTCACCTAGTGCAG", "binding signal": "9810 fluorescence intensity (a.u.)"}
{"sequence": "TTCTGTTGTGTTCACGGTCTACCTTCTCGATTCACCGCGCCGGAGTCACCTAGTGCAG", "binding signal": "11400 fluorescence intensity (a.u.)"}
{"sequence": "GCCTCAAAACCCGACCAACCTCAGTTCGGCTCGCGGCTCGCGGAGTCACCTAGTGCAG", "binding signal": "9000 fluorescence intensity (a.u.)"}
{"sequence": "GGTGGTCGGGGCTCTGACGCGGCGGGGCGGCGGAGGTGGTCGGAGTCACCTAGTGCAG", "binding signal": "10800 fluorescence intensity (a.u.)"}
{"sequence": "GGGGAATTGGGGATCTAGCTCGGGGATTTTTTTAGACAGACGGAGTCACCTAGTGCAG", "binding signal": "12800 fluorescence intensity (a.u.)"}
{"sequence": "ATTTTGACTTTTTCTTGTACTGTTTGACCATTCATCTTATCGGAGTCACCTAGTGCAG", "binding signal": "16200 fluorescence intensity (a.u.)"}
{"sequence": "TGGACCCGGGCTATCCTTTGAACTGGCTATGCGGCTTTCCCGGAGTCACCTAGTGCAG", "binding signal": "9790 fluorescence intensity (a.u.)"}
{"sequence": "ACCCTTTTTACGTGGAATACTTAATCTTCATCCTCATCTTCGGAGTCACCTAGTGCAG", "binding signal": "8470 fluorescence intensity (a.u.)"}
{"sequence": "ACTCCAAGATAAATTTTTCTGGACGCCATCTTCTTTTGTTCGGAGTCACCTAGTGCAG", "binding signal": "8390 fluorescence intensity (a.u.)"}
{"sequence": "CCTCCTCCAATCGCATTCTCCTCTCCACCTGCTGCATTACCGGAGTCACCTAGTGCAG", "binding signal": "8130 fluorescence intensity (a.u.)"}
{"sequence": "ATTTTTCTTTTCTGGTTCCTTCTTTCAGGCCCTTTGAATCCGGAGTCACCTAGTGCAG", "binding signal": "8640 fluorescence intensity (a.u.)"}
{"sequence": "AAAATGGACGTGACATTTGCCTTGGGCGTCTTGTGTTTGTCGGAGTCACCTAGTGCAG", "binding signal": "8080 fluorescence intensity (a.u.)"}
{"sequence": "CCCGCCGCCGCTGTCCTTGCAGCCGCCCGGCTTTGCCGGCCGGAGTCACCTAGTGCAG", "binding signal": "9080 fluorescence intensity (a.u.)"}
{"sequence": "TACATTCCCGTGTTTGTCTGCTCCGGCTCCACCCGAACTCCGGAGTCACCTAGTGCAG", "binding signal": "9830 fluorescence intensity (a.u.)"}
{"sequence": "ACCACCCACGTCGGGAGCGCTAGTCGCCGTTCACATTCTCCGGAGTCACCTAGTGCAG", "binding signal": "9170 fluorescence intensity (a.u.)"}
{"sequence": "ATTGTGGTGAGGACATATCAATCTACTCCCTCCGTCCCAACGGAGTCACCTAGTGCAG", "binding signal": "8770 fluorescence intensity (a.u.)"}
{"sequence": "ATTTTAGGTTGCCTTGTATTCTCATTGTTCTCTATAGTAGCGGAGTCACCTAGTGCAG", "binding signal": "8570 fluorescence intensity (a.u.)"}
{"sequence": "TTTGCTAATGACGGGCTTAATAAATTCGTCTCACAGTTTACGGAGTCACCTAGTGCAG", "binding signal": "8170 fluorescence intensity (a.u.)"}
{"sequence": "TCTCTCTCTCACTCAGCAACAGCTCGCAGCTCACTCTCTCCGGAGTCACCTAGTGCAG", "binding signal": "8590 fluorescence intensity (a.u.)"}
{"sequence": "CCTTTCTTTATTACTCCGTCAACGTACGATTCCTTGAACTCGGAGTCACCTAGTGCAG", "binding signal": "10400 fluorescence intensity (a.u.)"}
{"sequence": "CAACGACGGCGGGGAGGGGAGGGCGAACGGGGTAGACGCCCGGAGTCACCTAGTGCAG", "binding signal": "8980 fluorescence intensity (a.u.)"}
{"sequence": "GCCGTTGACTTTTTAACACATGTTTGACCATTCGTCTTATCGGAGTCACCTAGTGCAG", "binding signal": "60200 fluorescence intensity (a.u.)"}
{"sequence": "GCAATAATTCACCAAGAATCGCACCACTTTTCACCTTTTCCGGAGTCACCTAGTGCAG", "binding signal": "9980 fluorescence intensity (a.u.)"}
{"sequence": "TCACATTTCATCATCCTCCTCCTGCTCGCACATTTCTTTCCGGAGTCACCTAGTGCAG", "binding signal": "8060 fluorescence intensity (a.u.)"}
{"sequence": "GTGAGACTTTTCTCCCTTGTTTGCTTCGCCTCGGCCCCTTCGGAGTCACCTAGTGCAG", "binding signal": "9250 fluorescence intensity (a.u.)"}
{"sequence": "AGGGGTCTTCTTTATCTTAGGCATTTCTTTTTTCCCATGGCGGAGTCACCTAGTGCAG", "binding signal": "10800 fluorescence intensity (a.u.)"}
{"sequence": "CTCTCTCTCACACGGCCTCATCCATCCATCCCCACCTGAGCGGAGTCACCTAGTGCAG", "binding signal": "12900 fluorescence intensity (a.u.)"}
{"sequence": "TTGATGCCTTTGCCTGGTACTTTTTCTTGTGCTCTATCCACGGAGTCACCTAGTGCAG", "binding signal": "11800 fluorescence intensity (a.u.)"}
{"sequence": "TATGCGTGTAAAAAATGAGGGAGCGGGGTTGGAAATAAGGCGGAGTCACCTAGTGCAG", "binding signal": "9270 fluorescence intensity (a.u.)"}
{"sequence": "TGGTCGTCGTCGTCTTGGTCACTTGGTCTCCATCTCCTCTCGGAGTCACCTAGTGCAG", "binding signal": "10300 fluorescence intensity (a.u.)"}
{"sequence": "CTCGGTTTCTTTGCCAAAAATCGCTGAGGGGCGCGTCCCCCGGAGTCACCTAGTGCAG", "binding signal": "8600 fluorescence intensity (a.u.)"}
{"sequence": "GTGTCCCCTCTCCTCTTAGGGGTCTTGTATTTATACCCATCGGAGTCACCTAGTGCAG", "binding signal": "8150 fluorescence intensity (a.u.)"}
{"sequence": "GCTAGCTCACTCACTCTACCTCGCTAGCGATCTACTCGATCGGAGTCACCTAGTGCAG", "binding signal": "9680 fluorescence intensity (a.u.)"}
{"sequence": "AGAGATCGCCTCCGCCTCGCACCCGCCGGCGCCGGCGCCGCGGAGTCACCTAGTGCAG", "binding signal": "8370 fluorescence intensity (a.u.)"}
